# For at least one compound, name, drawing or mass did not settle the structure.
# System: A549 cells
# Experiment: Monastrol treatment of A549 cells, microscopy and time-lapse video-microscopy
# Format: cell-based, human
smiles,measurement,setting,value
CCOC(=O)C1=C(C)NC(=S)NC1c1cccc(O)c1 (stereo not shown) [monastrol],cell cycle effect,"150 μM, 24 hours, A549",cell cycle arrest in mitosis with monopolar spindles
same,localization of KIF11,"150 μM, 24 hours, A549",accumulation of endogenous KIF11 and exogenous EYFP-KIF11 at the center of monoaster along microtubules
same,cell-to-cell connections in non-mitotic cells that disappeared,"one-hour treatment, n=252 structures, time-lapse video-microscopy",more than a half
same,recovery after release from exposure,six hours after release,the intercellular bridge formation was re-constituted

# — patent US7972772B2, “KIF11 and method for diagnosing non-small cell lung cancer” (Oncotherapy Science, Inc., priority 2004, dated 2011)
